These are yes or no findings as the source states them, for the method shown. Binding calls can cover weak binding; strength is not graded here. Tags and fused reporters may be left off the sequences shown. For some assays here: Binding seen in cells or lysates may run through a third protein.

Assay [1] deals with T1, Myc-GGA1 (human) (UniProt Q9UJY5).
T1 sequence: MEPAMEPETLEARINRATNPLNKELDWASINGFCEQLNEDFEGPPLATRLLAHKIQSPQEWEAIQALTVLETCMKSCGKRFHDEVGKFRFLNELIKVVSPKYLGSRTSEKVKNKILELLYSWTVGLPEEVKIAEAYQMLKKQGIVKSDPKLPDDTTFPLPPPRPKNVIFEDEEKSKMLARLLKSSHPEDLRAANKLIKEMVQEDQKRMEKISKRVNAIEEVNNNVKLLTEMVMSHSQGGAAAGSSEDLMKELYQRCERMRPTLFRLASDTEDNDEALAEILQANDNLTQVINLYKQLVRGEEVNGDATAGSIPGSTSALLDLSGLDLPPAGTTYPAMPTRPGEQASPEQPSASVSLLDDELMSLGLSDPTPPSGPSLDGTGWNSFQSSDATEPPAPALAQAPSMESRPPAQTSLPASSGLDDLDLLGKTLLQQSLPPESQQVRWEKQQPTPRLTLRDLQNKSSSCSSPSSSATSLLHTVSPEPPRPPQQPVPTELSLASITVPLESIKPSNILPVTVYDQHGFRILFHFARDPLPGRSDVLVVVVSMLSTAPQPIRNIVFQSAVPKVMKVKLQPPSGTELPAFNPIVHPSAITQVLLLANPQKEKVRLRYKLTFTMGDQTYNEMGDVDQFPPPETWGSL
Description: co-IP; HepG2 cells transfected with Myc-GGA constructs, incubated with TCS, immunoprecipitated with anti-Myc antibody; TCS detected by blot.

For assay [2], the target named is T2, Myc-GGA3 (human) (UniProt Q9NZ52).
T2 sequence: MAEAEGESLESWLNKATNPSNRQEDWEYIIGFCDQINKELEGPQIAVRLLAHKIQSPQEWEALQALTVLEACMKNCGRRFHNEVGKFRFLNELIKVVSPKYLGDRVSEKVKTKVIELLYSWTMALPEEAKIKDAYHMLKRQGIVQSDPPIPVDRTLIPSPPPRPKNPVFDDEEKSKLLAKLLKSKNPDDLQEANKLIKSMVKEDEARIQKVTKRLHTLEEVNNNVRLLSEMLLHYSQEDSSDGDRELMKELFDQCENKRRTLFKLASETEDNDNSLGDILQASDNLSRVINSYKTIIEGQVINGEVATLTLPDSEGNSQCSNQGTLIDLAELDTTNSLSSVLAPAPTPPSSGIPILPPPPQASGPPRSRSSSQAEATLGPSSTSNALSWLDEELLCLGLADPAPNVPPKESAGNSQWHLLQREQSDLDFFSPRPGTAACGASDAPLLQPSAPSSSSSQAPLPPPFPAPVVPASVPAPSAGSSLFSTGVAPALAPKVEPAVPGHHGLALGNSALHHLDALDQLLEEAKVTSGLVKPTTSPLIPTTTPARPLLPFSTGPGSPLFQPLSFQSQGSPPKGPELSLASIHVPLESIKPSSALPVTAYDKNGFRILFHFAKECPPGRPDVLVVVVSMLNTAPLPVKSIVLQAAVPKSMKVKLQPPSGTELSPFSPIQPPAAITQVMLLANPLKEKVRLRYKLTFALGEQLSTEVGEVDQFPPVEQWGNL
Described as above.

The target in assay [3] is T3, GST-GGA3 VHS domain (human) (UniProt Q9NZ52).
T3 sequence: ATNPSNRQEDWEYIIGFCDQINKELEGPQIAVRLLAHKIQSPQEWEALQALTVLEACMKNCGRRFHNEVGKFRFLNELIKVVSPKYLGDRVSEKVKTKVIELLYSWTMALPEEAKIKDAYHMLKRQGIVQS
Briefly: pull-down; GST-tagged GGA3 domains on glutathione beads; bound TCS detected by immunoblotting with TCS antibody; the source of TCS in this experiment is not told.

The target of assay [4] is GST-TCS fusion protein (Trichosanthes kirilowii Maximowicz). Briefly: pull-down; GST-TCS or GST-TCS (LL/AA) on glutathione agarose beads, incubated with purified 6xHis-tagged GGA proteins; bound GGAs detected with anti-His antibodies and quantified; both purified.
Assay [5] has the same target. Briefly: pull-down; GST or GST-TCS on glutathione agarose beads, incubated with lysates of HepG2 cells transfected with Myc-GGA plasmids, 2 hours at 4 °C; detected with anti-myc antibody; only the target purified.
In assay [6] the target is GST-TCS (LL/AA) (Trichosanthes kirilowii Maximowicz). Description: pull-down; GST-TCS or GST-TCS (LL/AA) on glutathione agarose beads, incubated with purified 6xHis-tagged GGA proteins; bound GGAs detected with anti-His antibodies and quantified; both purified.

Turning to “Trichosanthin (Trichosanthes kirilowii Maximowicz)”, the binding result in assay [1], in assay [2] and in assay [3] was “binds” throughout.

B1: 6xHis-tagged GGA1 (protein, UniProt Q9UJY5-1 1-639)
chain: T1 sequence
Turning to B1, the binding result in assay [4] was “binds”.

B2: Myc-GGA1 (protein, UniProt Q9UJY5-1 1-639)
chain: T1 sequence
As for B2, in assay [5], the binding result is reported as “binds”.

B3: 6xHis-tagged GGA3 (protein, UniProt Q9NZ52-1 1-723)
chain: T2 sequence
For B3, the figures for the binding result in assay [4] and in assay [6] were “binds” and “binds weakly”, respectively.

B4: Myc-GGA3 (protein, UniProt Q9NZ52-1 1-723)
chain: T2 sequence
As to B4, the binding result in assay [5] is recorded as “binds”.

The record behind these values is article PMC5432272.
